Measured values as given in publication PMC12594206.
Results are given in words; binding and its absence hold for the method and conditions named. In cells and extracts the contact can be indirect. Some results given as binding are weak or reduced against the parent protein; the word gives no strength.

Target: T1, Epithelial V-like antigen 1 homolog C (EVA1C) (human (endogenous in SH-SY5Y)) (UniProt P58658)
T1 sequence: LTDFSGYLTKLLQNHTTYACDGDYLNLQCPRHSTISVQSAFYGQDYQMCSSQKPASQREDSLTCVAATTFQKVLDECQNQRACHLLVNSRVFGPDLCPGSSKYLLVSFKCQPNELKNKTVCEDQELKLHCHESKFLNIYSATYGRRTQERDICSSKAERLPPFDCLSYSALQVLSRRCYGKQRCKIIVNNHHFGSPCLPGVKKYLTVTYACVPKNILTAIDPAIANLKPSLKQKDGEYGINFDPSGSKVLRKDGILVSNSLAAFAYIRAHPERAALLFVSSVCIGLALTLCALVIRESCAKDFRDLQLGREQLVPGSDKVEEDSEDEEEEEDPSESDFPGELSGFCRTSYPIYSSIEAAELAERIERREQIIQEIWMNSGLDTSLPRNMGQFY
Experiment: co-IP; lysate (0.5 mg) of SH-SY5Y cells overexpressing 2N3R Tau, with or without NR (0.5 mM); nuclease-treated; 2 ug anti-EVA1C or control IgG at 4 C overnight, Protein A beads 4 h at 4 C; Western blot

binding: binds
B1: BAG1 (BCL2-associated athanogene 1) (protein, UniProt Q99933 1-345)
chain: MAQRGGARRPRGDRERLGSRLRALRPGREPRQSEPPAQRGPPPSGRPPARSTASGHDRPTRGAAAGARRPRMKKKTRRRSTRSEELTRSEELTLSEEATWSEEATQSEEATQGEEMNRSQEVTRDEESTRSEEVTREEMAAAGLTVTVTHSNEKHDLHVTSQQGSSEPVVQDLAQVVEEVIGVPQSFQKLIFKGKSLKEMETPLSALGIQDGCRVMLIGKKNSPQEEVELKKLKHLEKSVEKIADQLEELNKELTGIQQGFLPKDLQAEALCKLDRRVKATIEQFMKILEEIDTLILPENFKDSRLKRKGLVKKVQAFLAECDTVEQNICQETERLQSTNFALAE
